Some of the results follow.
Legend:
Assay in all cases: log2 fold change, soluble protein after heating vs DMSO (PISA); higher = thermal stabilisation; K562 cells, 10 uM, 30 min; active = over 0.2 and 3.5 SD of the protein, either way, in both replicates (recomputed)
saracatinib = compound: CN1CCN(CCOc2cc(OC3CCOCC3)c3c(Nc4c(Cl)ccc5c4OCO5)ncnc3c2)CC1 [saracatinib]
Procedure, shortened: (§1)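 Aliquots of K562 cells (2×10^6 cells/mL) treated with 10 μM compound for 30 min were heated for 3 min over 48°C-58°C. After pooling and extraction in PBS with 0.5% NP-40 at 4°C, soluble protein from a 21,000xg, 90 min spin was quantified by TMTpro 16plex LC-MS/MS with channel sums equalised. Thermal stability is expressed against control samples, from duplicates, as a log2 fold change.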

Sequences of proteins named here, by UniProt entry; tags and fusion partners are left off. A change or cut given only in a name is not applied to a line headed by its entry.
UniProt Q6UX04: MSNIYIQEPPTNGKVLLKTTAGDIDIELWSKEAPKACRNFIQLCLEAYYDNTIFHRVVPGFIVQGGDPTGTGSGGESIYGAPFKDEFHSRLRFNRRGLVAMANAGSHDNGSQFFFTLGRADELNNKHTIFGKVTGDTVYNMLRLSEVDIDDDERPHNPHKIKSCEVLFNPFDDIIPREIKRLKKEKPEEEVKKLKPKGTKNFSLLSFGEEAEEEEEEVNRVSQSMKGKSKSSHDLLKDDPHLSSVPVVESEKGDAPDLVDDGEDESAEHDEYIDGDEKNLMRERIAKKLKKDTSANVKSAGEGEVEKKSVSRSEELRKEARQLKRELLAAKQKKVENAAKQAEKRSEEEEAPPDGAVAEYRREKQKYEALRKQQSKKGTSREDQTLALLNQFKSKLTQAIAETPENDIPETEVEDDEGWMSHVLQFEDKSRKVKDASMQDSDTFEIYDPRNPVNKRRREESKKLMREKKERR
UniProt Q9H773: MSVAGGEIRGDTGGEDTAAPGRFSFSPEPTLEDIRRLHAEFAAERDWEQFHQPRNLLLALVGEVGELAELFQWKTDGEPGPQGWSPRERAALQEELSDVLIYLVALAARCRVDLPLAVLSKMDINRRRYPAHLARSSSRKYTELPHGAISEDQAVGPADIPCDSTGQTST
UniProt Q9UK59: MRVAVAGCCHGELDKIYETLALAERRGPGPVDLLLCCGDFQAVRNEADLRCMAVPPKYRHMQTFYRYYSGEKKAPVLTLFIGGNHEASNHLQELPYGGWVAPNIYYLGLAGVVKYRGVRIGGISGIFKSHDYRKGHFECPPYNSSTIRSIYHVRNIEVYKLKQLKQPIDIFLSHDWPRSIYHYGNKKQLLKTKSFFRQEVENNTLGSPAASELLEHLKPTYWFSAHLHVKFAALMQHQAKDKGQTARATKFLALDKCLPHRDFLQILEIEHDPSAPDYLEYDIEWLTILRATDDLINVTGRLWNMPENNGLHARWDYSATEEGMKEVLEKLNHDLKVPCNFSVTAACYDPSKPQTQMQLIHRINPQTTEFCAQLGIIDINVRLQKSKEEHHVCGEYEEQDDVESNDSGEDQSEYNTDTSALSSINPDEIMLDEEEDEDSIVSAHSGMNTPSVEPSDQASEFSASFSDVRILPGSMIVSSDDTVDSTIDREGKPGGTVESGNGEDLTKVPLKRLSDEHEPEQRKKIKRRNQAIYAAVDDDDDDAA
UniProt P09668: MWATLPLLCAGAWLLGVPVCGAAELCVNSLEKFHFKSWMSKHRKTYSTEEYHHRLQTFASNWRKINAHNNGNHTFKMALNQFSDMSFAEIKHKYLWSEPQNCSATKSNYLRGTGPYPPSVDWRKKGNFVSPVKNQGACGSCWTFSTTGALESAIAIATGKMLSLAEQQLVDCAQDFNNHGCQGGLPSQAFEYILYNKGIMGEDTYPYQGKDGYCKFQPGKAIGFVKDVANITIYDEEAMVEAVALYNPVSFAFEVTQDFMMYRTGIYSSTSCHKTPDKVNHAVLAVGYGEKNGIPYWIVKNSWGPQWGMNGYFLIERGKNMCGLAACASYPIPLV
UniProt O60888: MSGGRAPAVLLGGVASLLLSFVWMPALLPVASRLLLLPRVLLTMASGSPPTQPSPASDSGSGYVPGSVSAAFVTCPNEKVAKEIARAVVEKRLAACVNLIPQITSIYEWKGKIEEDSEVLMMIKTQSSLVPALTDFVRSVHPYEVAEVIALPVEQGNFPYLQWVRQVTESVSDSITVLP
UniProt Q9Y6A2: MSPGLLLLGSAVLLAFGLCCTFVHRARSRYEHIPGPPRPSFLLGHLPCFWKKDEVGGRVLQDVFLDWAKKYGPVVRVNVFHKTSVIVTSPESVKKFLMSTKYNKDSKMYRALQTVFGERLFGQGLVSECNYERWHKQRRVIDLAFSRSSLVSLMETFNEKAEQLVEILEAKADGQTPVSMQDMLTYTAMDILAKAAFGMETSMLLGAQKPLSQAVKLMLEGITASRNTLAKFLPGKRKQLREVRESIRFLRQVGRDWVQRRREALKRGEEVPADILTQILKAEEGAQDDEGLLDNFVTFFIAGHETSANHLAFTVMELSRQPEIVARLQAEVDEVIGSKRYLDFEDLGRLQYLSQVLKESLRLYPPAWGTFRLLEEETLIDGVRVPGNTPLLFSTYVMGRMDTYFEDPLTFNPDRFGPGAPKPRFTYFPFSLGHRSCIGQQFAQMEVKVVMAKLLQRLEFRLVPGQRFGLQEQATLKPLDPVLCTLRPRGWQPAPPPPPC
UniProt Q9NWV4: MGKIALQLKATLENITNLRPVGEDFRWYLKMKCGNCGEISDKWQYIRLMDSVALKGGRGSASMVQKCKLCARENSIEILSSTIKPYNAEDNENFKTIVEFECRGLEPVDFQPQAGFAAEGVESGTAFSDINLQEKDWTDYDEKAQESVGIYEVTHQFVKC
UniProt Q9Y5B0: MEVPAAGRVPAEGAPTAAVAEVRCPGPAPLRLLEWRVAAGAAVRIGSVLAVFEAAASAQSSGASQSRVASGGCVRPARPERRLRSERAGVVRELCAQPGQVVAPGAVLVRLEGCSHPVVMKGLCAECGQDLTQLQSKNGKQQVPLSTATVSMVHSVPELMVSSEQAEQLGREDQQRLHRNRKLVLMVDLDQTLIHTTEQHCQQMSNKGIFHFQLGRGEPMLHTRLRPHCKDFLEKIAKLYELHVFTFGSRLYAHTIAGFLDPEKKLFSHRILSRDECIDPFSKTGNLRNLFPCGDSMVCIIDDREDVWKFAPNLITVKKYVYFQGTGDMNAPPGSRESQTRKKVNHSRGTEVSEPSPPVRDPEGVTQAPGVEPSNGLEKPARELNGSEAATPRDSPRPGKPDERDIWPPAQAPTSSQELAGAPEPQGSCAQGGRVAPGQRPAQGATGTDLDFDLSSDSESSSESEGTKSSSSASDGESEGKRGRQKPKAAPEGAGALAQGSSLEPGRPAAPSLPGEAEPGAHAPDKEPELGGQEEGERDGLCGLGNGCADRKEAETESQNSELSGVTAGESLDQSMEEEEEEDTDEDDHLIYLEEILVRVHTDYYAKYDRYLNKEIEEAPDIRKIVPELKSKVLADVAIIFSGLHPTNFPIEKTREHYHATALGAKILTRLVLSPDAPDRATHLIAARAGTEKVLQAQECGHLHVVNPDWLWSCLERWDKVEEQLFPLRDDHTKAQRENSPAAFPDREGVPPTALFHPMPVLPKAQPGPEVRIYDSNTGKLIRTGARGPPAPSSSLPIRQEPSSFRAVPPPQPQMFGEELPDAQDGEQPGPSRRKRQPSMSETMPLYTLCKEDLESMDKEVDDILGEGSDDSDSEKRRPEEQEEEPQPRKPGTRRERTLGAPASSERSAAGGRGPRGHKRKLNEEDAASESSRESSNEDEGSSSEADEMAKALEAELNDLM
UniProt Q96SQ9: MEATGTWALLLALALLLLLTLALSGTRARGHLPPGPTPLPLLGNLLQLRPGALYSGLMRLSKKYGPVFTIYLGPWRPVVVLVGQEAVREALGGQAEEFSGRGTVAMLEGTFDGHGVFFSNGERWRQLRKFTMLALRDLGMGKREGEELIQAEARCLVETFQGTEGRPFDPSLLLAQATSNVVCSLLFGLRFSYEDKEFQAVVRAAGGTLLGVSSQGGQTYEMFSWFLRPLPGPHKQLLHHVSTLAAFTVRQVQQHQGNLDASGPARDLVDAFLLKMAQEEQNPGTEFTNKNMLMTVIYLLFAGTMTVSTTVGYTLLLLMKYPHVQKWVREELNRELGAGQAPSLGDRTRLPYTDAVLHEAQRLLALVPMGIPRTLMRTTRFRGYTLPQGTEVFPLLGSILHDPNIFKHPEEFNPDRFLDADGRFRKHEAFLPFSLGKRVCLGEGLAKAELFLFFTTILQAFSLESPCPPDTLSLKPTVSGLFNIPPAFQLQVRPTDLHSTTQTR
UniProt Q7Z7A3: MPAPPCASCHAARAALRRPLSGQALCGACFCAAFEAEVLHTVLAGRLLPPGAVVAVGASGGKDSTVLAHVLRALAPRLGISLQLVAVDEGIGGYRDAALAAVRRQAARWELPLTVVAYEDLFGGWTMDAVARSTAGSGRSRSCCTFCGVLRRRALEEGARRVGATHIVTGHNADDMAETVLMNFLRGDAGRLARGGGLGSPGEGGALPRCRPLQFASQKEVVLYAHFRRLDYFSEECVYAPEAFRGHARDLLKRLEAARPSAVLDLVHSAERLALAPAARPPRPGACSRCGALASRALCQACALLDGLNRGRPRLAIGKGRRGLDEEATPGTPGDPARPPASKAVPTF
UniProt Q58WW2: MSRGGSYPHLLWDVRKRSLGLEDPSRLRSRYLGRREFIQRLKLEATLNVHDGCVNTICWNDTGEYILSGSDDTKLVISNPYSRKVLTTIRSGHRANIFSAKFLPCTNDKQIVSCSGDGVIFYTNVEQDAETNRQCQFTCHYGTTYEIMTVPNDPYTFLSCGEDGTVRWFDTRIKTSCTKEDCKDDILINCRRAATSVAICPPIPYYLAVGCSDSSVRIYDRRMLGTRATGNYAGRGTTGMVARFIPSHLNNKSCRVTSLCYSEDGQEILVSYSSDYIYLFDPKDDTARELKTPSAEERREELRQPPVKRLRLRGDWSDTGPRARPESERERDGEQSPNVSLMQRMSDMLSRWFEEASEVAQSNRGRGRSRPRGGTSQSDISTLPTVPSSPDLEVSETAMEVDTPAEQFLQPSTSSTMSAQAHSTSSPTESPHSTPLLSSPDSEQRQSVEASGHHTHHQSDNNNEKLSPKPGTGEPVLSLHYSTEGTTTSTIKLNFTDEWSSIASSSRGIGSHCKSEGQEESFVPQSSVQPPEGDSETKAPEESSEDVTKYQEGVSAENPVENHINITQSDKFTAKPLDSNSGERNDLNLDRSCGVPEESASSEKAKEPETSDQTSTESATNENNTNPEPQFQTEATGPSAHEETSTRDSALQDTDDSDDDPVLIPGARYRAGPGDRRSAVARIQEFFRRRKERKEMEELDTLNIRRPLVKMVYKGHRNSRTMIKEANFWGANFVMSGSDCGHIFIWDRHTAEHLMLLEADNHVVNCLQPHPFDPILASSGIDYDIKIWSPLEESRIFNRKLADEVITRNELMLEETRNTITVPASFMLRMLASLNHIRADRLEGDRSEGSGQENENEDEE
UniProt Q14118: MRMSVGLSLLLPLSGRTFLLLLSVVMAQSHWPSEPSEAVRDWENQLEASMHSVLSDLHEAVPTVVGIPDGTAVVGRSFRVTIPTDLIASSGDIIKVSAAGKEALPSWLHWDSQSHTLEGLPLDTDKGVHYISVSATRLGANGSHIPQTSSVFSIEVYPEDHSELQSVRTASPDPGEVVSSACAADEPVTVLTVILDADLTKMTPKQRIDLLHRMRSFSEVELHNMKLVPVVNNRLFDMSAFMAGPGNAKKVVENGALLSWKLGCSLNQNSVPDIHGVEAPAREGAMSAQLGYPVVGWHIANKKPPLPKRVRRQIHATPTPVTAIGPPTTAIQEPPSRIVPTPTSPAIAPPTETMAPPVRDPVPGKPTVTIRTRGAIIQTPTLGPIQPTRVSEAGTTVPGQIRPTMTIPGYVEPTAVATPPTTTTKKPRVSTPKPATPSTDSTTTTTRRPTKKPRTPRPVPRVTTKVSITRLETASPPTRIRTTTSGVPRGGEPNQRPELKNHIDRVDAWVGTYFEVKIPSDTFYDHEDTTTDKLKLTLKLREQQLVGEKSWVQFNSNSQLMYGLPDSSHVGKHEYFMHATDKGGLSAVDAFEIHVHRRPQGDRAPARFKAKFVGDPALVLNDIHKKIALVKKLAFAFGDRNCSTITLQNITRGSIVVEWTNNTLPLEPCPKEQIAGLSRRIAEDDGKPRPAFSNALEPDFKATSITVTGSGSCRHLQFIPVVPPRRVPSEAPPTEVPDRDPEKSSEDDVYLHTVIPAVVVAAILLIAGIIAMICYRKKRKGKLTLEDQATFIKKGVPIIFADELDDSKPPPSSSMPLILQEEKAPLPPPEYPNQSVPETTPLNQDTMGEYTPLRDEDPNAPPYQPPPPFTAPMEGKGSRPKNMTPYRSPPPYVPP
UniProt Q9P0U4, whole entry, looked up: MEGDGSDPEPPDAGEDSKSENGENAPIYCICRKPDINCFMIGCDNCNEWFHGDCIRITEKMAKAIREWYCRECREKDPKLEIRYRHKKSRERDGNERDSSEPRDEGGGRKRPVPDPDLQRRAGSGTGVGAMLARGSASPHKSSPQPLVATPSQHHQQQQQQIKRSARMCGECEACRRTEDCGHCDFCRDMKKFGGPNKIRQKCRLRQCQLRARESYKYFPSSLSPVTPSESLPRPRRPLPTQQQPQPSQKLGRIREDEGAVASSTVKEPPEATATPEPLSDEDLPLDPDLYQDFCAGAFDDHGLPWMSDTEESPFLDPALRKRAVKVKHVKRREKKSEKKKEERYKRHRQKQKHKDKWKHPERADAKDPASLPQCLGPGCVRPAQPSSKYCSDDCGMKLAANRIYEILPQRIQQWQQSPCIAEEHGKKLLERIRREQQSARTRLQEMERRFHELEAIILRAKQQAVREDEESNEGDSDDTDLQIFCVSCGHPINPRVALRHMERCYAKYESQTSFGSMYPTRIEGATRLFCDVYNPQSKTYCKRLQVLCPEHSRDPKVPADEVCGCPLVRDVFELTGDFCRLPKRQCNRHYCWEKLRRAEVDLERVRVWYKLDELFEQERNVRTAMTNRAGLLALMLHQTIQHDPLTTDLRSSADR

sotrastaurin = compound: CN1CCN(c2nc(C3=C(c4c[nH]c5ccccc45)C(=O)NC3=O)c3ccccc3n2)CC1 [sotrastaurin]
Procedure, shortened: as §1

Tubastatin A = compound: CN1CCc2c(c3ccccc3n2Cc2ccc(C(=O)NO)cc2)C1 [Tubastatin A]
Procedure, shortened: as §1

[1] = compound: CNC(=O)C1=CC=CC=C1NC2=NC(=NC=C2Cl)NC3=C(C=C(C=C3)N4CCOCC4)OC
Procedure, shortened: as §1

defactinib = compound: CNC(=O)c1ccc(Nc2ncc(C(F)(F)F)c(NCc3nccnc3N(C)S(C)(=O)=O)n2)cc1 [defactinib]
Procedure, shortened: as §1

rucaparib = compound: CNCc1ccc(-c2[nH]c3cc(F)cc4c3c2CCNC4=O)cc1 [rucaparib]
Procedure, shortened: as §1

[2] = compound: CNc1nc(-c2ccc3c(N)n[nH]c3c2)cc(N2C[C@@H](C(=O)NC3CCCCC3)CC[C@H]2C)n1
Procedure, shortened: as §1

encorafenib = compound: COC(=O)N[C@@H](C)CNc1nccc(-c2cn(C(C)C)nc2-c2cc(Cl)cc(NS(C)(=O)=O)c2F)n1 [encorafenib]
Procedure, shortened: as §1

[3] = compound: COC(=O)[C@H](CCSC)NC(=O)C1=C(C=C(C=C1)NC[C@H](CS)N)C2=CC=CC=C2
Procedure, shortened: as §1

[4] = compound: COC1=CC=C(C=C1)CN2C=CC3=C2C=C(C=C3)C(=O)NO
Procedure, shortened: as §1

filanesib = compound: CON(C)C(=O)N1N=C(c2cc(F)ccc2F)S[C@@]1(CCCN)c1ccccc1 [filanesib]
Procedure, shortened: as §1

zotarolimus = compound: CO[C@H]1C[C@@H]2CC[C@@H](C)[C@@](O)(O2)C(=O)C(=O)N2CCCC[C@H]2C(=O)O[C@H]([C@H](C)C[C@@H]2CC[C@H](n3cnnn3)[C@H](OC)C2)CC(=O)[C@H](C)/C=C(\C)[C@@H](O)[C@@H](OC)C(=O)[C@H](C)C[C@H](C)/C=C/C=C/C=C/1C [zotarolimus]
Procedure, shortened: as §1

idasanutlin = compound: COc1cc(C(=O)O)ccc1NC(=O)[C@@H]1N[C@@H](CC(C)(C)C)[C@](C#N)(c2ccc(Cl)cc2F)[C@H]1c1cccc(Cl)c1F [idasanutlin]
Procedure, shortened: as §1

alisertib = compound: COc1cc(Nc2ncc3c(n2)-c2ccc(Cl)cc2C(c2c(F)cccc2OC)=NC3)ccc1C(=O)O [alisertib]
Procedure, shortened: as §1

[5] = compound: COc1cc2nc(-c3cc(F)ccc3O)nc(N[C@@H]3CNC[C@H]3C(C)(C)O)c2cc1OC
Procedure, shortened: as §1

gefitinib = compound: COc1cc2ncnc(Nc3ccc(F)c(Cl)c3)c2cc1OCCCN1CCOCC1 [gefitinib]
Procedure, shortened: as §1

[6] = compound: COc1cccc2cc(-c3nc([C@H]4CC[C@H](C(=O)O)CC4)n4ncnc(N)c34)[nH]c12
Procedure, shortened: as §1

lapatinib = compound: CS(=O)(=O)CCNCc1ccc(-c2ccc3ncnc(Nc4ccc(OCc5cccc(F)c5)c(Cl)c4)c3c2)o1 [lapatinib]
Procedure, shortened: as §1

pictilisib = compound: CS(=O)(=O)N1CCN(Cc2cc3nc(-c4cccc5[nH]ncc45)nc(N4CCOCC4)c3s2)CC1 [pictilisib]
Procedure, shortened: as §1

alvocidib = compound: CN1CC[C@H](c2c(O)cc(O)c3c(=O)cc(-c4ccccc4Cl)oc23)[C@H](O)C1 [alvocidib]
Procedure, shortened: as §1

Measured: log2 fold change

CWC27 (UniProt Q6UX04)
inactive: saracatinib 0.01 | sotrastaurin -0.093 | Tubastatin A 0.012 | [1] 0.022 | defactinib -0.139 | rucaparib -0.001 | [2] -0.064 | encorafenib 0.068 | [3] -0.04 | [4] 0.047 | filanesib -0.017 | zotarolimus -0.068 | idasanutlin 0.014 | alisertib -0.043 | [5] 0.061 | gefitinib 0.021 | [6] -0.046 | lapatinib -0.004 | pictilisib -0.036

DCTPP1 (UniProt Q9H773)
inactive: saracatinib 0.012 | sotrastaurin 0.031 | Tubastatin A 0.031 | [1] -0.075 | defactinib -0.008 | rucaparib -0.011 | [2] -0.022 | encorafenib -0.072 | [3] 0.002 | [4] 0.023 | filanesib -0.02 | zotarolimus 0.083 | idasanutlin -0.061 | alisertib -0.067 | [5] -0.091 | gefitinib 0 | [6] 0.038 | lapatinib -0.058 | pictilisib -0.05

DBR1 (UniProt Q9UK59)
inactive: saracatinib 0.048 | sotrastaurin 0.019 | Tubastatin A -0.012 | [1] -0.033 | defactinib -0.012 | rucaparib -0.007 | [2] -0.004 | encorafenib -0.012 | [3] -0.011 | [4] 0.051 | filanesib 0.036 | zotarolimus -0.003 | idasanutlin 0.015 | alisertib -0.018 | [5] 0.017 | gefitinib -0.049 | [6] 0.054 | lapatinib -0.021 | pictilisib -0.064

CTSH (UniProt P09668)
inactive: saracatinib 0.101 | sotrastaurin 0.044 | Tubastatin A 0.017 | [1] -0.002 | defactinib 0.018 | rucaparib -0.121 | [2] -0.03 | encorafenib 0.018 | [3] 0.02 | [4] 0.066 | filanesib -0.072 | zotarolimus -0.046 | idasanutlin 0.029 | alisertib -0.06 | [5] 0.021 | gefitinib 0.025 | [6] 0.084 | lapatinib 0.018 | pictilisib 0.019

CUTA isoform 2 (UniProt O60888)
inactive: saracatinib 0.202 | sotrastaurin 0.097 | Tubastatin A 0.049 | [1] 0.003 | defactinib -0.027 | rucaparib -0.035 | [2] 0.034 | encorafenib -0.002 | [3] 0.122 | [4] 0.248 | filanesib 0.108 | zotarolimus -0.159 | idasanutlin 0.002 | alisertib -0.055 | [5] -0.225 | gefitinib 0.037 | [6] 0.012 | lapatinib 0.023 | pictilisib -0.358

CTNND1 (UniProt O60716)
inactive: saracatinib -0.089 | sotrastaurin -0.077 | alvocidib -0.043 | Tubastatin A -0.025 | [1] 0.144 | defactinib 0.222 | rucaparib 0.353 | [2] 0.04 | encorafenib 0.153 | [3] 0.064 | [4] -0.069 | filanesib 0.273 | zotarolimus 0.101 | idasanutlin 0.16 | alisertib -0.117 | [5] -0.07 | [6] -0.27 | lapatinib -0.018 | pictilisib 0.052

CYP46A1 (UniProt Q9Y6A2)
inactive: saracatinib -0.162 | sotrastaurin 0.129 | alvocidib 0.193 | Tubastatin A -0.093 | defactinib -0.033 | [2] -0.053 | [3] -0.04 | [4] -0.482 | filanesib 0.124 | zotarolimus -0.058 | idasanutlin -0.409 | alisertib -0.221 | [5] 0.386 | [6] 0.052 | lapatinib -0.351 | pictilisib 0.231

CZIB (UniProt Q9NWV4)
inactive: saracatinib 0.03 | sotrastaurin 0.036 | alvocidib -0.056 | Tubastatin A -0.05 | [1] 0.025 | defactinib -0.038 | rucaparib -0.025 | [2] -0.017 | encorafenib -0.007 | [3] 0.045 | [4] -0.048 | filanesib -0.001 | zotarolimus 0 | idasanutlin -0.02 | alisertib -0.086 | [5] -0.018 | gefitinib -0.005 | [6] 0 | lapatinib -0.003 | pictilisib 0.072

CTDP1 (UniProt Q9Y5B0)
inactive: saracatinib -0.004 | sotrastaurin -0.111 | alvocidib 0.092 | Tubastatin A -0.016 | [1] 0.02 | [2] 0.082 | [4] 0.061 | filanesib -0.01 | zotarolimus -0.238 | alisertib -0.06 | [5] 0.092 | gefitinib -0.018 | [6] 0.101 | lapatinib 0.006

CYP2S1 isoform 2 (UniProt Q96SQ9)
inactive: saracatinib -0.001 | sotrastaurin 0.098 | alvocidib -0.005 | [1] 0.02 | [2] 0.301 | [4] 0.077 | filanesib 0.068 | zotarolimus 0.055 | idasanutlin 0.014 | alisertib 0.185 | [6] -0.069 | pictilisib 0.103

2 consecutive entries from above, for reference:
CTDP1 (UniProt Q9Y5B0)
inactive: saracatinib -0.004 | sotrastaurin -0.111 | alvocidib 0.092 | Tubastatin A -0.016 | [1] 0.02 | [2] 0.082 | [4] 0.061 | filanesib -0.01 | zotarolimus -0.238 | alisertib -0.06 | [5] 0.092 | gefitinib -0.018 | [6] 0.101 | lapatinib 0.006

CYP2S1 isoform 2 (UniProt Q96SQ9)
inactive: saracatinib -0.001 | sotrastaurin 0.098 | alvocidib -0.005 | [1] 0.02 | [2] 0.301 | [4] 0.077 | filanesib 0.068 | zotarolimus 0.055 | idasanutlin 0.014 | alisertib 0.185 | [6] -0.069 | pictilisib 0.103

The results go on:

CTU1 (UniProt Q7Z7A3)
inactive: saracatinib 0.01 | sotrastaurin -0.038 | Tubastatin A -0.029 | [1] -0.045 | defactinib -0.036 | rucaparib -0.003 | [2] 0.09 | encorafenib 0.02 | [3] -0.031 | [4] 0.045 | filanesib -0.193 | zotarolimus 0.022 | idasanutlin -0.037 | alisertib -0.063 | [5] -0.061 | gefitinib -0.024 | [6] 0.025 | lapatinib -0.085 | pictilisib -0.005

DAB2 (UniProt P98082)
inactive: saracatinib -0.044 | sotrastaurin 0.009 | Tubastatin A 0.139 | [1] 0.031 | defactinib -0.026 | rucaparib 0.043 | [2] 0.05 | encorafenib 0.077 | [3] -0.13 | [4] -0.009 | filanesib 0.079 | zotarolimus 0 | idasanutlin -0.055 | alisertib -0.081 | [5] 0.155 | gefitinib 0.024 | [6] 0.011 | lapatinib -0.005 | pictilisib 0.071

CTBS (UniProt Q01459)
inactive: saracatinib 0.081 | sotrastaurin -0.245 | Tubastatin A 0.038 | [1] 0.023 | defactinib -0.082 | rucaparib 0.055 | [2] -0.132 | encorafenib -0.093 | [3] -0.038 | [4] -0.006 | filanesib -0.038 | zotarolimus 0.002 | idasanutlin 0.018 | alisertib -0.032 | [5] 0.026 | gefitinib 0.01 | [6] 0.055 | lapatinib 0.004 | pictilisib -0.068

DCAF6 isoform 3 (UniProt Q58WW2)
inactive: saracatinib 0.093 | sotrastaurin 0.001 | Tubastatin A -0.05 | [1] -0.027 | defactinib -0.012 | rucaparib -0.028 | [2] -0.051 | encorafenib 0 | [3] 0.034 | [4] -0.007 | filanesib -0.017 | zotarolimus -0.045 | idasanutlin -0.026 | alisertib -0.081 | [5] -0.023 | gefitinib -0.01 | [6] 0.059 | lapatinib 0.016 | pictilisib 0.001

DCTN1 isoform 4 (UniProt Q14203)
inactive: saracatinib -0.126 | sotrastaurin -0.159 | Tubastatin A 0.079 | [1] -0.056 | defactinib -0.037 | rucaparib 0.227 | [2] 0.074 | encorafenib 0.083 | [3] -0.068 | [4] -0.007 | filanesib 0.047 | zotarolimus 0.095 | idasanutlin 0.012 | alisertib -0.045 | [5] 0.007 | gefitinib 0.042 | [6] -0.083 | lapatinib -0.007 | pictilisib -0.135

DAG1 (UniProt Q14118)
inactive: saracatinib -0.033 | sotrastaurin 0.1 | Tubastatin A -0.021 | [1] -0.093 | defactinib -0.032 | rucaparib -0.014 | [2] 0.052 | encorafenib 0.002 | [3] 0.007 | [4] 0.005 | filanesib 0.054 | zotarolimus -0.045 | idasanutlin -0.047 | alisertib -0.075 | [5] 0.105 | gefitinib 0.032 | [6] 0.082 | lapatinib -0.015 | pictilisib 0.115

CXXC1 isoform 2 (UniProt Q9P0U4)
inactive: saracatinib -0.032 | sotrastaurin 0.078 | alvocidib -0.077 | Tubastatin A 0.098 | defactinib -0.046 | [2] -0.015 | [3] 0.145 | [4] -0.03 | filanesib -0.005 | zotarolimus -0.064 | idasanutlin -0.104 | [5] 0.098 | lapatinib -0.075 | pictilisib 0.121

DCAF1 (UniProt Q9Y4B6)
inactive: saracatinib 0.003 | sotrastaurin -0.029 | alvocidib -0.13 | Tubastatin A 0.014 | [1] 0.009 | defactinib -0.181 | rucaparib -0.086 | [2] -0.053 | encorafenib -0.035 | [3] 0.013 | [4] 0.048 | filanesib 0.05 | zotarolimus 0 | idasanutlin -0.066 | alisertib 0.046 | [5] -0.013 | gefitinib -0.014 | [6] 0.048 | lapatinib 0 | pictilisib 0.091
